± gives the standard deviation. This is a selection; strong and weak results do not stand in their true shares. The uncertainty is large for many entries.
tested on: MILI (PIWIL2) piRISC loaded with piRNA #2 (26 nt); experiment: pre-steady-state target cleavage rate (min^-1); MIWI and MILI are mouse PIWI proteins and EfPiwi is from a freshwater sponge; tags in brackets are library labels; higher = faster piRNA-guided slicing of the target; conditions: guide: piRNA #2 5'p-UUAGGUAACCCAGUAGAUCCAGAGGA; auxiliary factor: 500 nM mouse GTSF1
Summary of the method: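 The pre-steady-state cleavage rate was calculated from a burst-and-steady-state fit. Data came from Cleave-'n-Seq, in which […] transcribed, DNA-blocked target RNA library was mixed with 1 nM active affinity-purified piRISC carrying one synthetic guide, with or without 500 nM GTSF1 partner protein, in HEPES–potassium acetate buffer at 33 °C for 0–8 or 0–960 min. Uncleaved targets were sequenced and normalised to depth and to weakly complementary targets, three trials were pooled, and k3 was capped at 0.0001 min^-1.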
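Further: 1 nM active piRISC with 0.1 nM target library at 33 °C single turnover.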

Q: How did the “pre-steady-state target cleavage rate” value turn out when CUUAAGGAGACCUAGAUCUGGGUUAGCCUAA was run?
A: Its value is 0.000437 ± 0.034.

Q: CUUAAGGAGAGGAUCAACUGGGUUACCAAA was tested. Which “pre-steady-state target cleavage rate” value did it give?
A: The value was 0.000203 ± 0.02.

Q: Which “pre-steady-state target cleavage rate” value does the source give for CUUAAGGAGACCUUCUACUGGGCUACCUAA here?
A: Its value is 0.000501 ± 0.02.

Q: CUUAAGGAGACCUACUACUGGCUUACGUAA was tested. Which “pre-steady-state target cleavage rate” value did it give?
A: The value was 0.000313 ± 0.029.

Q: With CUUAAGGAGACCUACUACUGGGUUAGCUAA as the sequence, how does the “pre-steady-state target cleavage rate” value read?
A: The value was 0.000478 ± 0.014.

Q: Which “pre-steady-state target cleavage rate” value does the source give for CUUAAGGACUGCAUCUACUGGGUAACCUAA here?
A: Its value is 0.00409 ± 0.01.

Q: Which “pre-steady-state target cleavage rate” value does the source give for CUUAAGGAGACCUAGUAGCUGGGUUACCUAA here?
A: The value was 0.000189 ± 0.053.

Q: With CUUAAGGAGACCAUCUACUGGCAAACCUAA as the sequence, how does the “pre-steady-state target cleavage rate” value read?
A: The value was 0.000273 ± 0.022.

Q: For CUUAAGGAGACCUAGUACUGGGUUACACUAA, which “pre-steady-state target cleavage rate” value is on record?
A: Its value is 0.000359 ± 0.02.

Q: With CUUAAGGAGACCUACUACUGGGUUACCUAAA as the sequence, how does the “pre-steady-state target cleavage rate” value read?
A: Its value is 0.00102 ± 0.009.

Q: For CUUAAGGAGACGAACUACUGGGUUUCCUAA, which “pre-steady-state target cleavage rate” value is on record?
A: The value was 0.000511 ± 0.012.

Q: CUUAAGGAGUGGAUCUACUGGGUUUCCUUA was tested. Which “pre-steady-state target cleavage rate” value did it give?
A: Its value is 0.00294 ± 0.0042.

Q: CUUAAGGAGAGGAUCUUACUGGGUUACCUAA was tested. Which “pre-steady-state target cleavage rate” value did it give?
A: The value was 0.000677 ± 0.015.

Q: How did the “pre-steady-state target cleavage rate” value turn out when CUUAAGGAGACGAUCUACAGCGUUACCUAA was run?
A: Its value is 0.00233 ± 0.0059.

Q: CUUAAGGAGACGAUCUACUGGUUUACCUAA was tested. Which “pre-steady-state target cleavage rate” value did it give?
A: Its value is 0.00296 ± 0.0037.

Q: CUUAAGGAGACCUAGAUCUCGGUUACCUUA was tested. Which “pre-steady-state target cleavage rate” value did it give?
A: Its value is 0.000215 ± 0.044.

Q: How did the “pre-steady-state target cleavage rate” value turn out when “CUUAAGGAGACCUAGAUGACCCAUACCUAU [g2:g7:cont:t1U]” was run?
A: The value was 0.000123 ± 0.025.

Q: How did the “pre-steady-state target cleavage rate” value turn out when CUUAUCGUCAGGAUCUACUGGGUUACCUAA was run?
A: The value was 0.03 ± 0.012.

Q: Which “pre-steady-state target cleavage rate” value does the source give for CUUAAGGAGAGGAUGUUCUGGGUUACCUAA here?
A: Its value is 0.000172 ± 0.027.

Q: With CUUAAGGUCUGGAUCAUGUGGGUUACCUAA as the sequence, how does the “pre-steady-state target cleavage rate” value read?
A: The value was 0.00248 ± 0.0041.

Q: How did the “pre-steady-state target cleavage rate” value turn out when CUUAAGGUCAGGAUCUACUGCGUUACCUAA was run?
A: The value was 0.00479 ± 0.0061.

Q: With CUUAAGGAGACCUAGAUGAGGGUUACCCAA as the sequence, how does the “pre-steady-state target cleavage rate” value read?
A: The value was 0.000381 ± 0.021.

Q: Which “pre-steady-state target cleavage rate” value does the source give for CUUAAGGAGAGGAUCUACUGGUUACCUAA here?
A: The value was 0.000785 ± 0.013.

Q: For CUUAAGGAGACCAUUUACUGGGUUACCUAA, which “pre-steady-state target cleavage rate” value is on record?
A: The value was 0.00156 ± 0.0053.

Q: “CUUAAGCUCUGGAUCUACUGGGUUUGGAUA [g7:g24:cont:t1A]” was tested. Which “pre-steady-state target cleavage rate” value did it give?
A: Its value is 0.00313 ± 0.0059.

Q: For CUUAAGGAGAGGAUCUAACUGGGUUACCUAA, which “pre-steady-state target cleavage rate” value is on record?
A: The value was 0.000244 ± 0.02.

Q: With CUUAUCCUCAGGAUCUACUGGCUUACCUAA as the sequence, how does the “pre-steady-state target cleavage rate” value read?
A: Its value is 0.000901 ± 0.015.

Q: CUUAAGCUCUGGAUCUACUCGGUUUCCUAA was tested. Which “pre-steady-state target cleavage rate” value did it give?
A: Its value is 0.000518 ± 0.012.

Q: How did the “pre-steady-state target cleavage rate” value turn out when CUUAAGGAGAGGAUCUACUGUGUUACCUAA was run?
A: The value was 0.00374 ± 0.0068.

Q: CUUAAGGAGACCUUCUACUGGGUUACCUUA was tested. Which “pre-steady-state target cleavage rate” value did it give?
A: Its value is 0.000718 ± 0.0097.

Q: For CUUAAGGAGAGGAUCUACUGGGUUACCGAA, which “pre-steady-state target cleavage rate” value is on record?
A: The value was 0.00169 ± 0.01.

Q: With CUUAAGGAGACCUUCUUCUGGGUUACCAAA as the sequence, how does the “pre-steady-state target cleavage rate” value read?
A: Its value is 0.000613 ± 0.015.

Q: For CUUAAGGAGUGGAACUACUCGGUUACCUAA, which “pre-steady-state target cleavage rate” value is on record?
A: The value was 0.000595 ± 0.023.

Q: For CUUAAGGAGACCUUCUACGGGGUUACCUAA, which “pre-steady-state target cleavage rate” value is on record?
A: The value was 0.00125 ± 0.0078.

Q: CUUAAGGAGACCUACUUCUGGGUUACCAAA was tested. Which “pre-steady-state target cleavage rate” value did it give?
A: Its value is 0.00034 ± 0.02.

Q: For CUUAAGGAGACCAUUCUACUGGGUUACCUAA, which “pre-steady-state target cleavage rate” value is on record?
A: The value was 0.00137 ± 0.0065.

Q: With CUUAAGGAGACGAUAUACUGGGUUACCUAA as the sequence, how does the “pre-steady-state target cleavage rate” value read?
A: The value was 0.00131 ± 0.0056.

Q: With CUUAAGGAGACCUUCUACUCGGUUACCUAA as the sequence, how does the “pre-steady-state target cleavage rate” value read?
A: Its value is 0.000281 ± 0.0094.

Q: For CUUAAGGAGACCAUCUACUCGGUUAGCUAA, which “pre-steady-state target cleavage rate” value is on record?
A: The value was 0.000319 ± 0.017.

Q: CUUAACCUCUGGAUUCUACUGGGUUACCUAA was tested. Which “pre-steady-state target cleavage rate” value did it give?
A: The value was 0.273 ± 0.093.

Q: CUUAAGGAGACCUACAACUGGGUUACCUUA was tested. Which “pre-steady-state target cleavage rate” value did it give?
A: Its value is 0.00017 ± 0.047.

Q: With CUUAAGGAGACCUACUACUGGGUCACCUAA as the sequence, how does the “pre-steady-state target cleavage rate” value read?
A: Its value is 0.000369 ± 0.029.

Q: Which “pre-steady-state target cleavage rate” value does the source give for CUUAAGGAGAGGAUGUACUGGGUUUCCUAA here?
A: Its value is 0.0021 ± 0.0055.

Q: Which “pre-steady-state target cleavage rate” value does the source give for CUUAAGGAGUGGAUGUACUGGGUUUCCUAA here?
A: Its value is 0.00756 ± 0.0079.

Q: For CUUAUGCUCUGGAUCUACUGGCUUACCUAA, which “pre-steady-state target cleavage rate” value is on record?
A: Its value is 0.00179 ± 0.0037.

Q: Which “pre-steady-state target cleavage rate” value does the source give for CUUAAGGAGACCUAGAUGACGGUAACCUUA here?
A: The value was 0.000262 ± 0.025.

Q: Which “pre-steady-state target cleavage rate” value does the source give for CUUAAGGAGACCUUCUACGUGGGUUACCUAA here?
A: Its value is 0.000676 ± 0.018.

Q: With CUUAAGGACUGGAGUCUACUGGGUUACCUAA as the sequence, how does the “pre-steady-state target cleavage rate” value read?
A: The value was 0.00644 ± 0.0073.

Q: How did the “pre-steady-state target cleavage rate” value turn out when CUUAAGCUCUGGAUCUACUGGCUUUCCUAA was run?
A: The value was 0.00054 ± 0.014.

Q: How did the “pre-steady-state target cleavage rate” value turn out when CUUAAGCUCUGGUUCUACUGGGUUUCCUAA was run?
A: The value was 0.219 ± 0.085.

Q: Which “pre-steady-state target cleavage rate” value does the source give for CUUAAGGAGACCUUCUACUGGGUACCUAA here?
A: Its value is 0.000343 ± 0.017.

Q: For CUUAAGGACUGGAUCUACUGGGUUACAUAA, which “pre-steady-state target cleavage rate” value is on record?
A: The value was 0.0044 ± 0.0074.

Q: How did the “pre-steady-state target cleavage rate” value turn out when CUUAAGGAGUGGAUCUACUGGGAAUCCUAA was run?
A: Its value is 0.00062 ± 0.014.

Q: With CUUAUCCUCUGGAUGUACUGGCUUACCUAA as the sequence, how does the “pre-steady-state target cleavage rate” value read?
A: The value was 0.00127 ± 0.015.

Q: With CUUAAGGAGACCUAGUACUGGGUCUACCUAA as the sequence, how does the “pre-steady-state target cleavage rate” value read?
A: Its value is 0.000503 ± 0.023.

Q: CUUAAGGUCUGGAUGUACUGGGUUACCAAA was tested. Which “pre-steady-state target cleavage rate” value did it give?
A: The value was 0.00659 ± 0.0066.

Q: For CUUAAGGACUGGUUCUACUCGGUUACCUAA, which “pre-steady-state target cleavage rate” value is on record?
A: Its value is 0.00102 ± 0.018.

Q: For CUUAAGGUGACGAUCUACUGGGUUACCUAA, which “pre-steady-state target cleavage rate” value is on record?
A: Its value is 0.00259 ± 0.0055.

Q: With CUUAAGGAGACCUUCUACUGGGCUUACCUAA as the sequence, how does the “pre-steady-state target cleavage rate” value read?
A: The value was 0.000731 ± 0.016.

Q: With CUUAAGGACUGGAUCUACCUGGGUUACCUAA as the sequence, how does the “pre-steady-state target cleavage rate” value read?
A: Its value is 0.000186 ± 0.06.

Q: How did the “pre-steady-state target cleavage rate” value turn out when CUUAACCUCUGGAGUCUACUGGGUUACCUAA was run?
A: The value was 0.135 ± 0.031.

Q: Which “pre-steady-state target cleavage rate” value does the source give for CUUAAGGAGAGGAUCUACUGGUGUUACCUAA here?
A: Its value is 0.00103 ± 0.011.

Q: For CUUAAGGACAGGUUCUACUGGGUUACCUAA, which “pre-steady-state target cleavage rate” value is on record?
A: Its value is 0.00207 ± 0.012.

Q: Which “pre-steady-state target cleavage rate” value does the source give for CUUAAGGAGACCUUCUACUGGGUAACCAAA here?
A: Its value is 0.000559 ± 0.02.

Q: With CUUAUCCUCUGGAUCUAGUGGGUUUCCUAA as the sequence, how does the “pre-steady-state target cleavage rate” value read?
A: The value was 0.055 ± 0.016.

Q: Which “pre-steady-state target cleavage rate” value does the source give for CUUAAGGAGACGAUCAACUGGGUAACCUAA here?
A: Its value is 0.000808 ± 0.012.

Q: How did the “pre-steady-state target cleavage rate” value turn out when CUUAAGGAGAGGAUCUACUGGCUUACCUAA was run?
A: The value was 0.000161 ± 0.045.

Q: CUUAAGGAGACGAUCUACUGGGAUUCCUAA was tested. Which “pre-steady-state target cleavage rate” value did it give?
A: Its value is 0.000958 ± 0.0076.

Q: CUUAAGGAGACCUACGACUGGGUUACCUAA was tested. Which “pre-steady-state target cleavage rate” value did it give?
A: Its value is 0.00024 ± 0.027.

Q: How did the “pre-steady-state target cleavage rate” value turn out when CUUAAGGACAGGAUCAACUGGGUUACCUAA was run?
A: Its value is 0.00526 ± 0.0056.

Q: CUUAAGGAGUGGAUGCUACUGGGUUACCUAA was tested. Which “pre-steady-state target cleavage rate” value did it give?
A: Its value is 0.00269 ± 0.0066.

Q: How did the “pre-steady-state target cleavage rate” value turn out when CUUAAGGUCUGGAUCUACUGCGUUACGUAA was run?
A: The value was 0.000905 ± 0.0099.

— the supplement of paper PMC10338343
